Results are given in words; binding and its absence hold for the method and conditions named. Binding seen in cells or lysates may run through a third protein. Some results given as binding are weak or reduced against the parent protein; the word gives no strength.
Target: Neuropilin-1 (human (endogenous in HUVEC)) (UniProt O14786)
Test: co-IP; serum-starved HUVECs treated with conditioned medium for 10 min, washed, lysed in 0.5% NP-40; endogenous Nrp-1 immunoprecipitated (2 ug Nrp-1 antibody, Protein-G PLUS-agarose, 4°C overnight); bound Sema3C detected by Western blotting

Chains of the proteins cited; added tags and fusions are not shown. Residues count along the entry.
UniProt O14786, residues 22-923: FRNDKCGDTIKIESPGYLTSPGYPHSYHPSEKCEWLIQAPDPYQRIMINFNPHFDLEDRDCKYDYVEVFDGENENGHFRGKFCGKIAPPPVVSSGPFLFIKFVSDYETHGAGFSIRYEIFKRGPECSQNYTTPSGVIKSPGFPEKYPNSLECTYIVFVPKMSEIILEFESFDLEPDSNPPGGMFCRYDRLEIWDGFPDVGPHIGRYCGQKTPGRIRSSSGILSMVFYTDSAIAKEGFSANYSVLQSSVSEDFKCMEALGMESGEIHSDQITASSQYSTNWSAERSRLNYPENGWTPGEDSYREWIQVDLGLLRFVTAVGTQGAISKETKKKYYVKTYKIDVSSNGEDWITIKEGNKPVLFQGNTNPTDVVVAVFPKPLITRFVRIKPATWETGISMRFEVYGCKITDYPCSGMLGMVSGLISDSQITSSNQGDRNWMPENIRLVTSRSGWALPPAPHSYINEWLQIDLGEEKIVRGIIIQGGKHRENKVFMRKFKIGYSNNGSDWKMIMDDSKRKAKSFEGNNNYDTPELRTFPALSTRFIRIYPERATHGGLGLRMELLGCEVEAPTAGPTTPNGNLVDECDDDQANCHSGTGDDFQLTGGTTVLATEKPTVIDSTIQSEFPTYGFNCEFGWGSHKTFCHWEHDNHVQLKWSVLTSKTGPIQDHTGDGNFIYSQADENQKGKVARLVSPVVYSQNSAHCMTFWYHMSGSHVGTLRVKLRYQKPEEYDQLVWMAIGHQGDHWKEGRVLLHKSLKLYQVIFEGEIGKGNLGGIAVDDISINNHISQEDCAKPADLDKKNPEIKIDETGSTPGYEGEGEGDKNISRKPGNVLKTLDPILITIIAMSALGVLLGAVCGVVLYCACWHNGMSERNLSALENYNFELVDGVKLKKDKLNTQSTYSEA

Row | binding | Binder
1 | binds | Semaphorin-3C (full-length Sema3C) (ligand, UniProt Q99985 21-751) GSSQPQARVYLTFDELRETKTSEYFSLSHHPLDYRILLMDEDQDRIYVGSKDHILSLNINNISQEALSVFWPASTIKVEECKMAGKDPTHGCGNFVRVIQTFNRTHLYVCGSGAFSPVCTYLNRGRRSEDQVFMIDSKCESGKGRCSFNPNVNTVSVMINEELFSGMYIDFMGTDAAIFRSLTKRNAVRTDQHNSKWLSEPMFVDAHVIPDGTDPNDAKVYFFFKEKLTDNNRSTKQIHSMIARICPNDTGGLRSLVNKWTTFLKARLVCSVTDEDGPETHFDELEDVFLLETDNPRTTLVYGIFTTSSSVFKGSAVCVYHLSDIQTVFNGPFAHKEGPNHQLISYQGRIPYPRPGTCPGGAFTPNMRTTKEFPDDVVTFIRNHPLMYNSIYPIHKRPLIVRIGTDYKYTKIAVDRVNAADGRYHVLFLGTDRGTVQKVVVLPTNNSVSGELILEELEVFKNHAPITTMKISSKKQQLYVSSNEGVSQVSLHRCHIYGTACADCCLARDPYCAWDGHSCSRFYPTGKRRSRRQDVRHGNPLTQCRGFNLKAYRNAAEIVQYGVKNNTTFLECAPKSPQASIKWLLQKDKDRRKEVKLNERIIATSQGLLIRSVQGSDQGLYHCIATENSFKQTIAKINFKVLDSEMVAVVTDKWSPWTWASSVRALPFHPKDIMGAFSHSEMQMINQYCKDTRQQHQQGDESQKMRGDYGKLKALINSRKSRNRRNQLPES
2 | no binding | Sema3CΔ13 isoform (domain or fragment, UniProt Q99985 21-738) GSSQPQARVYLTFDELRETKTSEYFSLSHHPLDYRILLMDEDQDRIYVGSKDHILSLNINNISQEALSVFWPASTIKVEECKMAGKDPTHGCGNFVRVIQTFNRTHLYVCGSGAFSPVCTYLNRGRRSEDQVFMIDSKCESGKGRCSFNPNVNTVSVMINEELFSGMYIDFMGTDAAIFRSLTKRNAVRTDQHNSKWLSEPMFVDAHVIPDGTDPNDAKVYFFFKEKLTDNNRSTKQIHSMIARICPNDTGGLRSLVNKWTTFLKARLVCSVTDEDGPETHFDELEDVFLLETDNPRTTLVYGIFTTSSSVFKGSAVCVYHLSDIQTVFNGPFAHKEGPNHQLISYQGRIPYPRPGTCPGGAFTPNMRTTKEFPDDVVTFIRNHPLMYNSIYPIHKRPLIVRIGTDYKYTKIAVDRVNAADGRYHVLFLGTDRGTVQKVVVLPTNNSVSGELILEELEVFKNHAPITTMKISSKKQQLYVSSNEGVSQVSLHRCHIYGTACADCCLARDPYCAWDGHSCSRFYPTGKRRSRRQDVRHGNPLTQCRGFNLKAYRNAAEIVQYGVKNNTTFLECAPKSPQASIKWLLQKDKDRRKEVKLNERIIATSQGLLIRSVQGSDQGLYHCIATENSFKQTIAKINFKVLDSEMVAVVTDKWSPWTWASSVRALPFHPKDIMGAFSHSEMQMINQYCKDTRQQHQQGDESQKMRGDYGKLKALINS
3 | no binding | Sema3Cp60 isoform (domain or fragment, UniProt Q99985 21-552) GSSQPQARVYLTFDELRETKTSEYFSLSHHPLDYRILLMDEDQDRIYVGSKDHILSLNINNISQEALSVFWPASTIKVEECKMAGKDPTHGCGNFVRVIQTFNRTHLYVCGSGAFSPVCTYLNRGRRSEDQVFMIDSKCESGKGRCSFNPNVNTVSVMINEELFSGMYIDFMGTDAAIFRSLTKRNAVRTDQHNSKWLSEPMFVDAHVIPDGTDPNDAKVYFFFKEKLTDNNRSTKQIHSMIARICPNDTGGLRSLVNKWTTFLKARLVCSVTDEDGPETHFDELEDVFLLETDNPRTTLVYGIFTTSSSVFKGSAVCVYHLSDIQTVFNGPFAHKEGPNHQLISYQGRIPYPRPGTCPGGAFTPNMRTTKEFPDDVVTFIRNHPLMYNSIYPIHKRPLIVRIGTDYKYTKIAVDRVNAADGRYHVLFLGTDRGTVQKVVVLPTNNSVSGELILEELEVFKNHAPITTMKISSKKQQLYVSSNEGVSQVSLHRCHIYGTACADCCLARDPYCAWDGHSCSRFYPTGKRRSRR
